Experiment [1] deals with phosphodiesterase 8A (V5/hPDE8A) (human) (UniProt O60658). The experiment is described as follows: co-IP.
Experiment [2] concerns the target Focal Adhesion Kinase (FLAG/hFAK) (human) (UniProt Q05397). As to the kind of experiment: co-IP.

Chains of the proteins cited; added tags and fusions are not shown.
UniProt O60658: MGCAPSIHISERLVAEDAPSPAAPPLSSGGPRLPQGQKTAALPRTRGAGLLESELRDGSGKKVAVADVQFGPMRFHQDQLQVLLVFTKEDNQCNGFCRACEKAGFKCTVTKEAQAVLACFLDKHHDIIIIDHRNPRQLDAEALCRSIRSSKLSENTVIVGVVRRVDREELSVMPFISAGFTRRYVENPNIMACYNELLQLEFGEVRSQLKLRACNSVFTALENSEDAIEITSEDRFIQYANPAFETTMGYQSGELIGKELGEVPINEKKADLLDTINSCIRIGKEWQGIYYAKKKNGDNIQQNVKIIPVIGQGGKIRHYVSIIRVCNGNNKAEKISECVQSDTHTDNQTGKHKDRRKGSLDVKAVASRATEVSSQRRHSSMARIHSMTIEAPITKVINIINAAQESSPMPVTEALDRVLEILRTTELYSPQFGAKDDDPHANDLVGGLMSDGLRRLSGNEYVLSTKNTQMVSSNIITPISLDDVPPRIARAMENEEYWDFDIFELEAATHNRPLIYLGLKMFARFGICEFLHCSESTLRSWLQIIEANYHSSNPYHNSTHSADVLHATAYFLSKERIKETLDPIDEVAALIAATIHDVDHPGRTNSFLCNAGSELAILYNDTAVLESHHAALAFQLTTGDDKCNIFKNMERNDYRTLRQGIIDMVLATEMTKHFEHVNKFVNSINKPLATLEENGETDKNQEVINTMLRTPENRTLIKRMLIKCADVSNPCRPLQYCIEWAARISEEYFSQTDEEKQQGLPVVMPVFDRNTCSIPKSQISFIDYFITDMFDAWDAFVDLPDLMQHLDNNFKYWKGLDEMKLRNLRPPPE
UniProt Q05397: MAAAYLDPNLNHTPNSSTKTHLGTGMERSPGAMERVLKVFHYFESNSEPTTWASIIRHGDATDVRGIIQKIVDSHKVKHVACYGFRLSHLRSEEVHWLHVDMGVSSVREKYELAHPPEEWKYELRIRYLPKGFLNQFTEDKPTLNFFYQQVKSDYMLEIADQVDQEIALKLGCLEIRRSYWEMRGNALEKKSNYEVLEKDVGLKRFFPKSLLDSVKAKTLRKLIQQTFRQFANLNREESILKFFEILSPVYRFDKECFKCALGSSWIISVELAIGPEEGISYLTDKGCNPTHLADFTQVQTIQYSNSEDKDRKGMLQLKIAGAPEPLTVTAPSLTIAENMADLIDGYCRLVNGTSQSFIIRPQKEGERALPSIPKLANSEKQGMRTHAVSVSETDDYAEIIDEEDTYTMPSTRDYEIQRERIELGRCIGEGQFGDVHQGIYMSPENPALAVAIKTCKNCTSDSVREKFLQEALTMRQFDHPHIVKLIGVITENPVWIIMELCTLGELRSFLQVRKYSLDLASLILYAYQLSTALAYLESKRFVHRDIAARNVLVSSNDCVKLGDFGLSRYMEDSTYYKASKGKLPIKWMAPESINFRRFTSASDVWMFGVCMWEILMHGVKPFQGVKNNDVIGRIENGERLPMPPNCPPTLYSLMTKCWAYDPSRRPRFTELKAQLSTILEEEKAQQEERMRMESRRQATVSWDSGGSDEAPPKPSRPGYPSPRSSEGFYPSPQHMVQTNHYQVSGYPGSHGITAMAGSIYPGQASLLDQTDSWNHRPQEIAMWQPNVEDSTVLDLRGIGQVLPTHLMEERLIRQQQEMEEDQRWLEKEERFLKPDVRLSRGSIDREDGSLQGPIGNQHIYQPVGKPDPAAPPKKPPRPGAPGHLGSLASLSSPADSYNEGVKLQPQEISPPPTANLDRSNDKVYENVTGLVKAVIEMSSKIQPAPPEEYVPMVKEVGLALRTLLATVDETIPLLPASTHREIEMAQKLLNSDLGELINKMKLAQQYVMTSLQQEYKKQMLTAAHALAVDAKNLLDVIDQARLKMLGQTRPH

Results are given in words; binding and its absence hold for the method and conditions named. In cells and extracts the contact can be indirect. Some results given as binding are weak or reduced against the parent protein; the word gives no strength.

For the substance “Focal Adhesion Kinase (FLAG/hFAK) (from UniProt Q05397 1-1052) (enzyme)”, the binding result in experiment [1] is recorded as “binds”. As for “phosphodiesterase 8A (V5/hPDE8A) (from UniProt O60658 1-829) (enzyme)”, the binding result in experiment [2] is on record as “binds”.

Source of the values: article doi:10.1101/2024.06.28.601153.
